Reference: paper PMC2727002
No constants are given. Whether binding was seen depends on the method and setting. Binding seen in cells or lysates may run through a third protein. These calls come from enrichment with a bait or labelling near it, and not all partners need be listed. For part of these data: A no says only that the protein was not detected with the bait. Where a sequence is shown, tags or fusion partners need not be part of it.

Tests used:
[1] = molecular target: T1, Tap-tagged Rrp41 (yeast) (UniProt P46948); test: affinity purification with mass spectrometry; large-scale tandem affinity purification of Tap-tagged proteins from 2 g of total extract of wild-type, not4Δ or caf40Δ cells, 150 mM NaCl; SDS-PAGE, coomassie, bands identified by MALDI-Tof fingerprint
T1 sequence: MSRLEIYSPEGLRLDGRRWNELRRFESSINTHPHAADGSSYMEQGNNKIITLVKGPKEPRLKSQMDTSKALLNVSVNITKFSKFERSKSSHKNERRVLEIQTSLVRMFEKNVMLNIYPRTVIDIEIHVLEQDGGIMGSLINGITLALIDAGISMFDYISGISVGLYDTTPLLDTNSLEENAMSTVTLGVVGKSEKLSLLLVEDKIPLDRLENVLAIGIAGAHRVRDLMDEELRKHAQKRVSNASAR

[2] = molecular target: T2, Tap-tagged Caf130 (yeast) (UniProt P53280); test: as above
T2 sequence: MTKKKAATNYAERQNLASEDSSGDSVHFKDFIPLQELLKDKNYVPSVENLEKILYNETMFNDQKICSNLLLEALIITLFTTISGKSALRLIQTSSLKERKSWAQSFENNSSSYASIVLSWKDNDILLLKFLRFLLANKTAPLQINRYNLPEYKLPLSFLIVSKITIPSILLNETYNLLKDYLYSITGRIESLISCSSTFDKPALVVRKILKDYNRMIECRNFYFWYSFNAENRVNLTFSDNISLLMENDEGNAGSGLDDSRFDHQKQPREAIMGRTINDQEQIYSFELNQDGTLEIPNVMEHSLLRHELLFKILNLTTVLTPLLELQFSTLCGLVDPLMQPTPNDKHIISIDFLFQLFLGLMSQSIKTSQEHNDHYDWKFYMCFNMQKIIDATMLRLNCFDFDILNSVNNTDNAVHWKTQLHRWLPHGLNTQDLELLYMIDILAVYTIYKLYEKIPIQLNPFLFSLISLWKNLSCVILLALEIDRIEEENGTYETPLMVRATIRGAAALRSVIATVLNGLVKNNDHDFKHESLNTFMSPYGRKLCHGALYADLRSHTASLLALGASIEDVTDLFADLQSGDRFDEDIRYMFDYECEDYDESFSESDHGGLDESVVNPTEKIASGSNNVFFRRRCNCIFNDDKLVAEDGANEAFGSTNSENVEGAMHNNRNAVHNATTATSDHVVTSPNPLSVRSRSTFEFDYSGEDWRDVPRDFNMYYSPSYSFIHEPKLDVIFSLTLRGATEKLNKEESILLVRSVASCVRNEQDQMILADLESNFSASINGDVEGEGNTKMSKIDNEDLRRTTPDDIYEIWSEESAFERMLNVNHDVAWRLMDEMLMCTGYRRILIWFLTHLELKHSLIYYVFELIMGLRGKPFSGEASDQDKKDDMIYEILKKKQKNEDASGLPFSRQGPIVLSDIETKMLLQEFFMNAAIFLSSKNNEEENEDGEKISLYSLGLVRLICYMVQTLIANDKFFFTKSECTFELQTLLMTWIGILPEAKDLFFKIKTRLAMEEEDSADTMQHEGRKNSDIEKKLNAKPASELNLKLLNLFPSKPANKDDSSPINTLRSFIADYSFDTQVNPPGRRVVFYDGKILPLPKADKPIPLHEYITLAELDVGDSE

[3] = molecular target: T1, Tap-tagged Rrp41 (yeast); test: affinity purification with mass spectrometry; large-scale tandem affinity purification of Tap-tagged Rrp41 from 2 g of total extract of wild-type cells, 150 mM NaCl; SDS-PAGE, coomassie, MALDI-Tof fingerprint

binding [1]: binds
binding [2]: binds
binding [3]: no binding (only from wild-type cells)
B1: Not5 (protein, UniProt Q12514 1-560)
chain: MSQRKLQQDIDKLLKKVKEGIEDFDDIYEKFQSTDPSNSSHREKLESDLKREIKKLQKHRDQIKTWLSKEDVKDKQSVLMTNRRLIENGMERFKSVEKLMKTKQFSKEALTNPDIIKDPKELKKRDQVLFIHDCLDELQKQLEQYEAQENEEQTERHEFHIANLENILKKLQNNEMDPEPVEEFQDDIKYYVENNDDPDFIEYDTIYEDMGCEIQPSSSNNEAPKEGNNQTSLSSIRSSKKQERSPKKKAPQRDVSISDRATTPIAPGVESASQSISSTPTPVSTDTPLHTVKDDSIKFDNSTLGTPTTHVSMKKKESENDSEQQLNFPPDRTDEIRKTIQHDVETNAAFQNPLFNDELKYWLDSKRYLMQPLQEMSPKMVSQLESSLLNCPDSLDADSPCLYTKPLSLPHPTSIFFPNEPIRFVYPYDVPLNLTNNENDTDNKFGKDSKAKSKKDDDIYSRTSLARIFMKFDLDTLFFIFYHYQGSYEQFLAARELFKNRNWLFNKVDRCWYYKEIEKLPPGMGKSEEESWRYFDYKKSWLARRCGNDFVYNEEDFEKL
